Results are given in words; binding and its absence hold for the method and conditions named. In cells and extracts the contact can be indirect. Binding can be weak; no strength is given. Where a sequence is shown, tags or fusion partners need not be part of it.
Key:
[1] = molecular target: T1, SlLHA1-nYFP (tomato (Solanum lycopersicum)) (UniProt P22180); experiment: split reporter; BiFC: LHA1 or LHA4 fused with nYFP and SlPLL2 with cYFP, transiently expressed in N. benthamiana leaves; confocal microscopy
T1 sequence: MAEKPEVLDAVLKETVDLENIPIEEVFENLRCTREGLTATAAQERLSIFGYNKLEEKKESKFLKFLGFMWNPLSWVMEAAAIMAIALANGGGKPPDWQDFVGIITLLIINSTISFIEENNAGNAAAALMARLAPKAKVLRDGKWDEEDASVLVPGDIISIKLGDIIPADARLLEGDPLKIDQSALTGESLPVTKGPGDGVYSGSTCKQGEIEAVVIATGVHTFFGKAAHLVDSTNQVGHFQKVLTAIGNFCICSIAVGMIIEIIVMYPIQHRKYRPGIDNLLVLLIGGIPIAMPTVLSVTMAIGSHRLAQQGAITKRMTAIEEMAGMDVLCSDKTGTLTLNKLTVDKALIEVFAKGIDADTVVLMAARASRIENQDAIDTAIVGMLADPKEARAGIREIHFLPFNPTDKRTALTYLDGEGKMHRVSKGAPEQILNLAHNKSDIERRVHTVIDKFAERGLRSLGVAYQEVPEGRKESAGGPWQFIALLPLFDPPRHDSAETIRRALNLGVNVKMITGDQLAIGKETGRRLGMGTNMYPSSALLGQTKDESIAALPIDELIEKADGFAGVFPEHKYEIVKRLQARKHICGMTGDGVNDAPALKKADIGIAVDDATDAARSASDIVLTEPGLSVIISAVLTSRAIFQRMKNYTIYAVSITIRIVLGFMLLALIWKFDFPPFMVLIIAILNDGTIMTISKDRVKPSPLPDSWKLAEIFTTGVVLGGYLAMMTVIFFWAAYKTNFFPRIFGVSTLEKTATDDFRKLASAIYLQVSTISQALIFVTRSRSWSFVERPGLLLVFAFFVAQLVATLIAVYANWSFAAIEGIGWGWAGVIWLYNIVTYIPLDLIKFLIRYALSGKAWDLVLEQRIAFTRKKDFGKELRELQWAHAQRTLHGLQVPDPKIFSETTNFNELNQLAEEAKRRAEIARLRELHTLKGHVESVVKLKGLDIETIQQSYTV

[2] = molecular target: T2, 3xFLAG-LHA1-R (regulatory domain of the plasma membrane H+-ATPase LHA1) (tomato (Solanum lycopersicum)) (UniProt P22180); experiment: co-IP; 3xFLAG-tagged R domain precipitated with anti-FLAG M2 affinity gel from N. benthamiana leaf extract (150 mM NaCl, 50 mM Tris-HCl pH 7.5, 10% glycerol, 0.5% IGEPAL; 4 °C, 3 h), PLL2-sfGFP detected with anti-GFP; no systemin treatment
T2 sequence: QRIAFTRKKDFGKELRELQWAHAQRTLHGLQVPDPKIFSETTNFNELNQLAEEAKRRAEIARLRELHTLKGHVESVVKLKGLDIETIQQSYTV

Row | binding [1] | binding [2] | Substance
1 | binds |  | SlPLL2-cYFP (tomato (Solanum lycopersicum)) (enzyme)
2 |  | binds | SlPLL2^3A-sfGFP (phospho-dead variant, GFP fusion) (tomato (Solanum lycopersicum)) (enzyme)
3 |  | no binding | SlPLL2^3D-sfGFP (phospho-mimetic variant, GFP fusion) (tomato (Solanum lycopersicum)) (enzyme)
